Assay results: patent publication EP1501554B1, “BENZOTHIENYL ANALOGUE OF SOMATOSTATINE, SELECTIVE FOR CERTAIN SOMATOSTATIN RECEPTORS” (Advanced Accelerator Applications USA, Inc., priority 2002, dated 2003)
Part of at least one peptide drawing is inferred or uncertain, most often the ends.

Sequences of proteins named here, by UniProt entry; tags and fusion partners are left off. A change or cut given only in a name is not applied to a line headed by its entry.
UniProt P30874: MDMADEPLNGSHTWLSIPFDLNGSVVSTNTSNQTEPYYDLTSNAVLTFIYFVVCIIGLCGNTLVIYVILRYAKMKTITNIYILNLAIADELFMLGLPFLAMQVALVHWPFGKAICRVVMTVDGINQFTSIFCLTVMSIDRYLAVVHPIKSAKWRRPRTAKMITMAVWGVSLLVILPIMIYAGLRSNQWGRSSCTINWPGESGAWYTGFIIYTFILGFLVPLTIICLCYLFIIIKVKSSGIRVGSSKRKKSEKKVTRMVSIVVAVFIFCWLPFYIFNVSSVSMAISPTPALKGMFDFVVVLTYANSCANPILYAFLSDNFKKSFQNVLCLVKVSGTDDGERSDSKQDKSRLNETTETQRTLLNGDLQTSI
UniProt P32745: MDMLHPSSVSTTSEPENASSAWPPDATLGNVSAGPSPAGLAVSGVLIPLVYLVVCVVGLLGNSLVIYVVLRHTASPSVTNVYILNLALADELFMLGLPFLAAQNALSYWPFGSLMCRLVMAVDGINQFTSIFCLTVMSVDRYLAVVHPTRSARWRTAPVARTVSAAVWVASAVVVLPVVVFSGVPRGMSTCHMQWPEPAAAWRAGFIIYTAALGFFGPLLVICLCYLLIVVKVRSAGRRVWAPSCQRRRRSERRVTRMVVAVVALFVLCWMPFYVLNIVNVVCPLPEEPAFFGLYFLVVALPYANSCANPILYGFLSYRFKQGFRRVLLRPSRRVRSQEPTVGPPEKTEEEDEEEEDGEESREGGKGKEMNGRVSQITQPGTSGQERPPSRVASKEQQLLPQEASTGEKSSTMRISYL

Columns and labels:
hsst 2 = target: T1, hsst 2 (Homo sapiens, UniProt P30874); test: In vitro binding affinity, transfected cell lines, hsst 2
T1 construct: expressed in transfected cells

hsst 3 = target: T2, hsst 3 (Homo sapiens, UniProt P32745); test: In vitro binding affinity, transfected cell lines, hsst 3; details: compared with cpd. 5 (Y-DOTA-LAN)
T2 construct: expressed in transfected cells

Row | Compound | binding affinity to sst2, fold higher than the native peptide (hsst 2; compared with the native peptide (SS-28)) | affinity to sst 3, times better than for cpd. 5 (hsst 3) | binding affinity to sst 2, times better than cpd. 6 (hsst 2; compared with cpd. 6 (Y-DOTA-TOC))
1 | C[C@@H](O)[C@H](NC(=O)[C@@H]1CSSC[C@H](NC(=O)[C@H](N)Cc2ccccc2)C(=O)N[C@@H](Cc2csc3ccccc23)C(=O)N[C@H](Cc2c[nH]c3ccccc23)C(=O)N[C@@H](CCCCN)C(=O)N[C@@H]([C@@H](C)O)C(=O)N1)C(=O)O [compound 13, H-(D)Phe-cyclo[Cys-3-benzothienylalanyl-(D)Trp-Lys-Thr-Cys]-Thr-OH] | 4 fold | – | –
2 | C[C@@H](O)[C@H](NC(=O)[C@@H]1CSSC[C@H](NC(=O)[C@@H](Cc2ccccc2)NC(=O)CN2CCN(CC(=O)O)CCN(CC(=O)O)CCN(CC(=O)O)CC2)C(=O)N[C@@H](Cc2csc3ccccc23)C(=O)N[C@H](Cc2c[nH]c3ccccc23)C(=O)N[C@@H](CCCCN)C(=O)N[C@@H]([C@@H](C)O)C(=O)N1)C(=O)O [cpd. 11, ^111In-labelled DOTA-(D)Phe-cyclo[Cys-3-benzothienylalanyl-(D)Trp-Lys-Thr-Cys]Thr-OH, metal not drawn] | – | approx. ten | approx. three
